Laboratory results from publication PMC7819943, “Rice protein-binding microarrays: a tool to detect cis-acting elements near promoter regions in rice”.
The list shows a part of the results.

By UniProt entry, the sequences of proteins in these tests, tags left out.
UniProt Q0JBA9, entry or part of it: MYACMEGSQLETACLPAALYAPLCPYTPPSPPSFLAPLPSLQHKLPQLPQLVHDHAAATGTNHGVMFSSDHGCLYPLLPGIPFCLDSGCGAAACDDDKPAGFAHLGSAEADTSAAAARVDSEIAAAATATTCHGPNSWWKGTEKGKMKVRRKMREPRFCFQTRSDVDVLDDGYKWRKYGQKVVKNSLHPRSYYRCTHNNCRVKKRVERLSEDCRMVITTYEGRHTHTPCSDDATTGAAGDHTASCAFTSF

target: OsWRKY34 (Oryza sativa, UniProt Q0JBA9 1-250); assay: protein-binding microarray (RPBM); PBS, 2% BSA, 51.3 ng/ul salmon testes DNA, 50 uM zinc acetate, 200 nM TF, 25 C, 1 h; high values mean tight binding; conditions: protein: recombinant; tags: N-terminal polyhistidine and DsRed monomer fusion (pET32a); label: CyDye5-dUTP incorporated in the synthesized complementary strand; 3' TTTTT single-stranded linker to array surface; dsDNA, one strand shown
Outline: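 A custom Agilent array was converted to double-stranded form by primer extension with Cy5-dUTP and blocked with 2% BSA. Protein at 200 nM in PBS with 2% BSA, salmon testes DNA and 50 µM zinc acetate was applied for 1 h at 25 °C, followed by washing. The proteins were polyhistidine–DsRed N-terminal fusions of transcription factors, expressed in E. coli BL21-CodonPlus and Ni–NTA-purified. The binding signal is per-feature fluorescence intensity (arbitrary units) from an Axon 4000B scanner.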

Sequence | binding signal
ACTTACCCTTTACTTTCACCCTTGGCTGTCATTCAGGTACCGGAGTCACCTAGTGCAG | 9400 fluorescence intensity (a.u.)
GGGCAAGTTCGCGTCAAAATCGGCCCGTTGTTTTCTTTTTCGGAGTCACCTAGTGCAG | 9550 fluorescence intensity (a.u.)
TTGTGCCTCGCTTGCTCATCTTTTTTTGGGGATTTATCTTCGGAGTCACCTAGTGCAG | 8670 fluorescence intensity (a.u.)
CACCTGAAGCCGGCCATTCCTTCCGCGTTTCCGTCGACGTCGGAGTCACCTAGTGCAG | 9180 fluorescence intensity (a.u.)
TCTATTGCGTTCCGTTCCGTGAGCTATTTCCCCAAATCAACGGAGTCACCTAGTGCAG | 8740 fluorescence intensity (a.u.)
GCTGCCTCGTCCATCTGTCGTCCAACGCGCCTCTTCACTTCGGAGTCACCTAGTGCAG | 11500 fluorescence intensity (a.u.)
CTATTTTATAAAATCTTTGTTTATGCATACCAGCTAAATTCGGAGTCACCTAGTGCAG | 8800 fluorescence intensity (a.u.)
ACAGCCTTATCTCTTTCTCCTGTCTCTTATCTCTTTCTTCCGGAGTCACCTAGTGCAG | 12600 fluorescence intensity (a.u.)
AAAATTTTTTTAACGTATACGGATGCACATTTGAAGTATTCGGAGTCACCTAGTGCAG | 8420 fluorescence intensity (a.u.)
AGTTTGTGTTGTAGCTGTAGCCAGTTGCTCTTCTCTCTTCCGGAGTCACCTAGTGCAG | 12000 fluorescence intensity (a.u.)
CACTGTATATTTTTCTATCGCAGTCATGTGATATACCCTTCGGAGTCACCTAGTGCAG | 10400 fluorescence intensity (a.u.)
GACTTTTGCTTAACTTCTACGATTTACCATCGCTGTCCGGCGGAGTCACCTAGTGCAG | 8190 fluorescence intensity (a.u.)
TGTTGGCTGTAACATAGAAAATTTTTCAGCATGTTGCTTTCGGAGTCACCTAGTGCAG | 8580 fluorescence intensity (a.u.)
TTTTGTGCATTTTCGAAATCATTTTCTCTCCTCCACCGGACGGAGTCACCTAGTGCAG | 9380 fluorescence intensity (a.u.)
CCGTATTTCCTTTGCATATATGCCGTGTTTGGTGTTGGATCGGAGTCACCTAGTGCAG | 15500 fluorescence intensity (a.u.)
GGTGGCTCATCTTCTAGCCATGGTGGTGTAGTAGTTCGTCCGGAGTCACCTAGTGCAG | 9990 fluorescence intensity (a.u.)
ACCGTCTCCTGGCTCCTGCCCCACCTATGCCCCTCATTTCCGGAGTCACCTAGTGCAG | 9180 fluorescence intensity (a.u.)
CACGAAGCCAGTCTAACCGCCATGTGTGGGCTTGTTTGACCGGAGTCACCTAGTGCAG | 8700 fluorescence intensity (a.u.)
TCGTTCTTGGCTGGGTTTGGTTTGGTTTGGTTTGGTCTCGCGGAGTCACCTAGTGCAG | 45500 fluorescence intensity (a.u.)
TTTTTTGAGCCGTATTTTTGCTCTCTTGTTACGTTTTTTTCGGAGTCACCTAGTGCAG | 17100 fluorescence intensity (a.u.)
CTCCTTGCTTGTCATCGCCATTGCCATCGTCATCACAGCACGGAGTCACCTAGTGCAG | 13000 fluorescence intensity (a.u.)
TAATGCCAAACACAGCCTAAATCTTCGAGGGTTCTAAAGTCGGAGTCACCTAGTGCAG | 8170 fluorescence intensity (a.u.)
CGGGGCTGTTGGGGCGGATCCATGTCCGGATCTTCGGCGACGGAGTCACCTAGTGCAG | 12100 fluorescence intensity (a.u.)

Copied from the list.
Value of GGGCAAGTTCGCGTCAAAATCGGCCCGTTGTTTTCTTTTTCGGAGTCACCTAGTGCAG under binding signal: 9550 fluorescence intensity (a.u.)
Value of TCGTTCTTGGCTGGGTTTGGTTTGGTTTGGTTTGGTCTCGCGGAGTCACCTAGTGCAG under binding signal: 45500 fluorescence intensity (a.u.)
